# Results taken from the supplement of paper PMC8728848.
# The list shows a part of the results.
# B1: SUN4 (Saccharomyces cerevisiae), P53616 (protein)
# chain: MGSSHHHHHHSSGLVPRGSHNGSIYGDLADFSGPYEKFEDGTIPCGQFPSGQGVIPISWLDEGGWSGVENTDTSTGGSCKEGSYCSYACQPGMSKTQWPSDQPSDGRSIGGLLCKDGYLYRSNTDTDYLCEWGVDAAYVVSELSNDVAICRTDYPGTENMVIPTYVQAGDSLPLTVVDQDTYYTWQGLKTSAAYYVNNAGISVEDACVWGSSSSGVGNWAPLNFGAGSSDGVAYLSLIPNPNNGNALNFNVKIVAADDSSTVNGECIYENGSFSGGSDGCTVSVTAGKAKFVLYN
# Columns and labels:
# Test in all cases: glycan array binding signal (z-score within array); higher = stronger binding
# Conditions in all cases: glycan notation: IUPAC condensed, linker removed; mutation: Q318A
# Fuc(a1-2)Gal = target: Fuc(a1-2)Gal
# Summary of the method: (§1)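 The Consortium for Functional Glycomics database supplied 3228 glycan arrays, of which those lacking an available protein sequence were dropped. The binding signal, a within-array Z-score, was averaged across arrays of the same protein sequence and across linkers. Negative scores can be read as non-binding.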
# Fuc(a1-2)Gal(b1-3)GalNAc = target: Fuc(a1-2)Gal(b1-3)GalNAc
# Summary of the method: as §1
# [1] = target: Fuc(a1-2)Gal(b1-3)GalNAc(a1-3)[Fuc(a1-2)]Gal(b1-4)Glc
# Summary of the method: as §1
# [2] = target: Fuc(a1-2)Gal(b1-3)GalNAc(a1-3)[Fuc(a1-2)]Gal(b1-4)GlcNAc
# Summary of the method: as §1
# [3] = target: Fuc(a1-2)Gal(b1-3)GalNAc(b1-3)Gal
# Summary of the method: as §1
# [4] = target: Fuc(a1-2)Gal(b1-3)GalNAc(b1-3)Gal(a1-4)Gal(b1-4)Glc
# Summary of the method: as §1
# [5] = target: Fuc(a1-2)Gal(b1-3)GalNAc(b1-4)[Neu5Ac(a2-3)]Gal(b1-4)Glc
# Summary of the method: as §1
# Fuc(a1-2)Gal(b1-3)GlcNAc = target: Fuc(a1-2)Gal(b1-3)GlcNAc
# Summary of the method: as §1
# [6] = target: Fuc(a1-2)Gal(b1-3)GlcNAc(b1-2)Man(a1-3)[Fuc(a1-2)Gal(b1-3)GlcNAc(b1-2)Man(a1-6)]Man(b1-4)GlcNAc(b1-4)GlcNAc
# Summary of the method: as §1
# [7] = target: Fuc(a1-2)Gal(b1-3)GlcNAc(b1-2)Man(a1-3)[Fuc(a1-2)Gal(b1-3)GlcNAc(b1-2)Man(a1-6)]Man(b1-4)GlcNAc(b1-4)[Fuc(a1-6)]GlcNAc
# Summary of the method: as §1
# [8] = target: Fuc(a1-2)Gal(b1-3)GlcNAc(b1-3)Gal(b1-4)Glc
# Summary of the method: as §1
# [9] = target: Fuc(a1-2)Gal(b1-3)GlcNAc(b1-3)GalNAc
# Summary of the method: as §1
# [10] = target: Fuc(a1-2)Gal(b1-3)GlcNAc(b1-3)[Fuc(a1-2)Gal(b1-3)GlcNAc(b1-6)]GalNAc
# Summary of the method: as §1
# [11] = target: Fuc(a1-2)Gal(b1-3)GlcNAc(b1-3)[Gal(b1-4)GlcNAc(b1-6)]Gal(b1-4)Glc
# Summary of the method: as §1
# [12] = target: Fuc(a1-2)Gal(b1-3)GlcNAc(b1-3)[Neu5Ac(a2-6)Gal(b1-4)GlcNAc(b1-6)]Gal(b1-4)Glc
# Summary of the method: as §1
# [13] = target: Fuc(a1-2)Gal(b1-3)GlcNAc6S
# Summary of the method: as §1
# [14] = target: Fuc(a1-2)Gal(b1-3)[Fuc(a1-4)]GlcNAc
# Summary of the method: as §1
# [15] = target: Fuc(a1-2)Gal(b1-3)[Fuc(a1-4)]GlcNAc(b1-2)Man(a1-3)[Fuc(a1-2)Gal(b1-3)[Fuc(a1-4)]GlcNAc(b1-2)Man(a1-3)]Man(b1-4)GlcNAc(b1-4)GlcNAc
# Summary of the method: as §1
# [16] = target: Fuc(a1-2)Gal(b1-3)[Fuc(a1-4)]GlcNAc(b1-2)Man(a1-3)[Fuc(a1-2)Gal(b1-3)[Fuc(a1-4)]GlcNAc(b1-2)Man(a1-6)]Man(b1-4)GlcNAc(b1-4)[Fuc(a1-6)]GlcNAc(b1-4)[Fuc(a1-6)]GlcNAc
# Summary of the method: as §1
# [17] = target: Fuc(a1-2)Gal(b1-3)[Fuc(a1-4)]GlcNAc(b1-3)[Fuc(a1-3)[Gal(b1-4)]GlcNAc(b1-6)]Gal(b1-4)Glc
# Summary of the method: as §1
# [18] = target: Fuc(a1-2)Gal(b1-3)[Fuc(a1-4)]GlcNAc(b1-3)[Gal(b1-4)GlcNAc(b1-6)]Gal(b1-4)Glc
# Summary of the method: as §1
# [19] = target: Fuc(a1-2)Gal(b1-4)Fuc(a1-3)]GlcNAc(b1-2)Man(a1-3)[Fuc(a1-2)Gal(b1-4)[Fuc(a1-3)]GlcNAc(b1-2)Man(a1-6)]Man(b1-4)GlcNAc(b1-4)GlcNAc
# Summary of the method: as §1
# Fuc(a1-2)Gal(b1-4)Glc = target: Fuc(a1-2)Gal(b1-4)Glc
# Summary of the method: as §1
# Fuc(a1-2)Gal(b1-4)Glc6S = target: Fuc(a1-2)Gal(b1-4)Glc6S
# Summary of the method: as §1
# Fuc(a1-2)Gal(b1-4)GlcNAc = target: Fuc(a1-2)Gal(b1-4)GlcNAc
# Summary of the method: as §1
# [20] = target: Fuc(a1-2)Gal(b1-4)GlcNAc(b1-2)Man
# Summary of the method: as §1
# [21] = target: Fuc(a1-2)Gal(b1-4)GlcNAc(b1-2)Man(a1-3)[Fuc(a1-2)Gal(b1-4)GlcNAc(b1-2)Man(a1-6)]Man(b1-4)GlcNAc(b1-4)GlcNAc
# Summary of the method: as §1
# [22] = target: Fuc(a1-2)Gal(b1-4)GlcNAc(b1-2)Man(a1-3)[Fuc(a1-2)Gal(b1-4)GlcNAc(b1-2)Man(a1-6)]Man(b1-4)GlcNAc(b1-4)[Fuc(a1-6)]GlcNAc
# Summary of the method: as §1
# [23] = target: Fuc(a1-2)Gal(b1-4)GlcNAc(b1-2)[Fuc(a1-2)Gal(b1-4)GlcNAc(b1-4)]Man(a1-3)[Fuc(a1-2)Gal(b1-4)GlcNAc(b1-2)Man(a1-6)]Man(b1-4)GlcNAc(b1-4)GlcNAc
# Summary of the method: as §1
# [24] = target: Fuc(a1-2)Gal(b1-4)GlcNAc(b1-3)Gal(b1-4)GlcNAc
# Summary of the method: as §1
# [25] = target: Fuc(a1-2)Gal(b1-4)GlcNAc(b1-3)Gal(b1-4)GlcNAc(b1-2)Man(a1-3)[Fuc(a1-2)Gal(b1-4)GlcNAc(b1-3)Gal(b1-4)GlcNAc(b1-2)Man(a1-6)]Man(b1-4)GlcNAc(b1-4)GlcNAc
# Summary of the method: as §1
# [26] = target: Fuc(a1-2)Gal(b1-4)GlcNAc(b1-3)Gal(b1-4)GlcNAc(b1-3)Gal(b1-4)GlcNAc
# Summary of the method: as §1
# [27] = target: Fuc(a1-2)Gal(b1-4)GlcNAc(b1-3)GalNAc
# Summary of the method: as §1
# [28] = target: Fuc(a1-2)Gal(b1-4)GlcNAc(b1-3)[Fuc(a1-2)Gal(b1-4)GlcNAc(b1-6)]GalNAc
# Summary of the method: as §1
# [29] = target: Fuc(a1-2)Gal(b1-4)GlcNAc(b1-3)[Fuc(a1-3)[Gal(b1-4)]GlcNAc(b1-6)]Gal(b1-4)Glc
# Summary of the method: as §1
# [30] = target: Fuc(a1-2)Gal(b1-4)GlcNAc(b1-6)GalNAc
# Summary of the method: as §1
# [31] = target: Fuc(a1-2)Gal(b1-4)GlcNAc6S
# Summary of the method: as §1
# [32] = target: Fuc(a1-2)Gal(b1-4)[Fuc(a1-3)]GlcNAc
# Summary of the method: as §1
# [33] = target: Fuc(a1-2)Gal(b1-4)[Fuc(a1-3)]GlcNAc(b1-2)Man(a1-3)[Fuc(a1-2)Gal(b1-4)[Fuc(a1-3)]GlcNAc(b1-2)Man(a1-6)]Man(b1-4)GlcNAc(b1-4)[Fuc(a1-6)]GlcNAc
# Summary of the method: as §1
# [34] = target: Fuc(a1-2)Gal(b1-4)[Fuc(a1-3)]GlcNAc(b1-2)[Fuc(a1-2)Gal(b1-4)[Fuc(a1-3)]GlcNAc(b1-4)]Man(a1-3)[Fuc(a1-2)Gal(b1-4)[Fuc(a1-3)]GlcNAc(b1-2)Man(a1-6)]Man(b1-4)GlcNAc(b1-4)GlcNAc
# Summary of the method: as §1
# [35] = target: Fuc(a1-2)Gal(b1-4)[Fuc(a1-3)]GlcNAc(b1-3)Gal(b1-4)[Fuc(a1-3)]GlcNAc
# Summary of the method: as §1
# [36] = target: Fuc(a1-2)Gal(b1-4)[Fuc(a1-3)]GlcNAc(b1-3)Gal(b1-4)[Fuc(a1-3)]GlcNAc(b1-3)Gal(b1-4)[Fuc(a1-3)]GlcNAc
# Summary of the method: as §1
# [37] = target: Fuc(a1-2)Gal(b1-4)[Fuc(a1-3)]GlcNAc(b1-3)GalNAc
# Summary of the method: as §1
# [38] = target: Fuc(a1-2)Gal(b1-4)[Fuc(a1-3)]GlcNAc(b1-3)[Neu5Ac(a2-6)Gal(b1-4)GlcNAc(b1-6)]Gal(b1-4)Glc
# Summary of the method: as §1
# [39] = target: Fuc(a1-2)Gal3S(b1-4)GlcNAc
# Summary of the method: as §1
binder,measurement,setting,value
B1,glycan array binding signal (z-score),Fuc(a1-2)Gal,0.003
same,glycan array binding signal (z-score),Fuc(a1-2)Gal(b1-3)GalNAc,-0.075
same,glycan array binding signal (z-score),[1],0.002
same,glycan array binding signal (z-score),[2],-0.142
same,glycan array binding signal (z-score),[3],0.454
same,glycan array binding signal (z-score),[4],-1.17
same,glycan array binding signal (z-score),[5],-0.245
same,glycan array binding signal (z-score),Fuc(a1-2)Gal(b1-3)GlcNAc,-0.091
same,glycan array binding signal (z-score),[6],1.38
same,glycan array binding signal (z-score),[7],0.022
same,glycan array binding signal (z-score),[8],-0.078
same,glycan array binding signal (z-score),[9],-0.157
same,glycan array binding signal (z-score),[10],0.442
same,glycan array binding signal (z-score),[11],-0.634
same,glycan array binding signal (z-score),[12],-1.25
same,glycan array binding signal (z-score),[13],0.054
same,glycan array binding signal (z-score),[14],-0.192
same,glycan array binding signal (z-score),[15],-0.278
same,glycan array binding signal (z-score),[16],1.14
same,glycan array binding signal (z-score),[17],-0.932
same,glycan array binding signal (z-score),[18],0.096
same,glycan array binding signal (z-score),[19],2.65
same,glycan array binding signal (z-score),Fuc(a1-2)Gal(b1-4)Glc,-0.964
same,glycan array binding signal (z-score),Fuc(a1-2)Gal(b1-4)Glc6S,-0.114
same,glycan array binding signal (z-score),Fuc(a1-2)Gal(b1-4)GlcNAc,-0.67
same,glycan array binding signal (z-score),[20],0.036
same,glycan array binding signal (z-score),[21],-0.18
same,glycan array binding signal (z-score),[22],0.745
same,glycan array binding signal (z-score),[23],0.729
same,glycan array binding signal (z-score),[24],0.379
same,glycan array binding signal (z-score),[25],1.88
same,glycan array binding signal (z-score),[26],0.397
same,glycan array binding signal (z-score),[27],0.38
same,glycan array binding signal (z-score),[28],0.387
same,glycan array binding signal (z-score),[29],0.41
same,glycan array binding signal (z-score),[30],0.954
same,glycan array binding signal (z-score),[31],0.645
same,glycan array binding signal (z-score),[32],-0.378
same,glycan array binding signal (z-score),[33],0.091
same,glycan array binding signal (z-score),[34],0.794
same,glycan array binding signal (z-score),[35],0.391
same,glycan array binding signal (z-score),[36],-0.82
same,glycan array binding signal (z-score),[37],0.031
same,glycan array binding signal (z-score),[38],-0.198
same,glycan array binding signal (z-score),[39],-1.06

# Pulled one by one from the list above, four records:
binder,measurement,setting,value
B1,glycan array binding signal (z-score),[23],0.729
same,glycan array binding signal (z-score),Fuc(a1-2)Gal(b1-4)GlcNAc,-0.67
same,glycan array binding signal (z-score),[18],0.096
same,glycan array binding signal (z-score),[11],-0.634
